{"sequences": {"note": "Protein sequences, listed by entry. Tags and fused reporters are not part of them. Lines headed by an entry give the natural chain unless they say otherwise; changes in a name come on top.", "UniProt Q9DD02": "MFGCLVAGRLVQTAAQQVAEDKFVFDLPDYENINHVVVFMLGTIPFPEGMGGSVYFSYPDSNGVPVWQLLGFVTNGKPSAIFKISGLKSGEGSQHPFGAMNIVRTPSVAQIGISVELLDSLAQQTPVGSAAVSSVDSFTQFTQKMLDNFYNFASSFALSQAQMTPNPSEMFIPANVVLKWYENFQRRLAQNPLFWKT", "UniProt Q9DBE9": "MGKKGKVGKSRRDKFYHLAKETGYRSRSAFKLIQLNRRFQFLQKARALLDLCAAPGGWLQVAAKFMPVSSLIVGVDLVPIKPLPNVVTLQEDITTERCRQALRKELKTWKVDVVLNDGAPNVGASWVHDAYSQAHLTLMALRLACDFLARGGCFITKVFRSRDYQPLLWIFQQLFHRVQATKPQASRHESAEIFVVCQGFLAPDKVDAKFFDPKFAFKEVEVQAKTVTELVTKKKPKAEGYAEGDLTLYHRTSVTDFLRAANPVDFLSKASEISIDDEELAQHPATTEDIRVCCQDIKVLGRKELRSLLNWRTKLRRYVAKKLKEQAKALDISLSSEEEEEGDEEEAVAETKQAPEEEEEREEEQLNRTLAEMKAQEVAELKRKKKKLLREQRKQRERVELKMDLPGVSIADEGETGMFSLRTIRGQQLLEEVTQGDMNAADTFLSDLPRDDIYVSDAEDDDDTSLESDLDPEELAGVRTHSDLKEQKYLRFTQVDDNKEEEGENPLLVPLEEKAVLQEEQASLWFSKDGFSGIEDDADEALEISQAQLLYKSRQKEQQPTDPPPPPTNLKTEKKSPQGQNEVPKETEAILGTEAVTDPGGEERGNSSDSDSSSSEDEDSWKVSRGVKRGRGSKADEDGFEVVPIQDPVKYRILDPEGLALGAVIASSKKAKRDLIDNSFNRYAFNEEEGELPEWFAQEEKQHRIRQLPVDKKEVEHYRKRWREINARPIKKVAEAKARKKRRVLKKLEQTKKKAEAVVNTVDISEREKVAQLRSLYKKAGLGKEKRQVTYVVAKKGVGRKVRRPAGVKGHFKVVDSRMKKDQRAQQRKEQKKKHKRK", "UniProt Q9DD03": "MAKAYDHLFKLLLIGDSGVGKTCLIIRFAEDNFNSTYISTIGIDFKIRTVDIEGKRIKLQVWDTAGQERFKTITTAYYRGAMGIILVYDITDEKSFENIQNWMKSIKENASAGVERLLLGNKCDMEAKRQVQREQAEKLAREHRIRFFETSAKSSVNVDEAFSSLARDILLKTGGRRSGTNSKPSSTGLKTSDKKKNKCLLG", "UniProt Q9DBL2": "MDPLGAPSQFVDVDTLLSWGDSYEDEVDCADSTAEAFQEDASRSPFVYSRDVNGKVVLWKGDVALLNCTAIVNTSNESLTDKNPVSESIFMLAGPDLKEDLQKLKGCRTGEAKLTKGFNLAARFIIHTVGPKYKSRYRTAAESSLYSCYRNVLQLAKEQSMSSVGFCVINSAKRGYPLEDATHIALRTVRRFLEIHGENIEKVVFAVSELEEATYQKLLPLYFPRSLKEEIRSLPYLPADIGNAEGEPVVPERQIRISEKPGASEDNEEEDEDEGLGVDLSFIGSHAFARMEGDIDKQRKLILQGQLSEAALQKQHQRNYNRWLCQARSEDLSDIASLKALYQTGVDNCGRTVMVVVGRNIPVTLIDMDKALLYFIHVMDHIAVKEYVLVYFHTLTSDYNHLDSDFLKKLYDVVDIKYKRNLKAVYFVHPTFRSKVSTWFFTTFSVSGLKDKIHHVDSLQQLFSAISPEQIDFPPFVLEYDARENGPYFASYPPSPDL", "UniProt Q9DD24": "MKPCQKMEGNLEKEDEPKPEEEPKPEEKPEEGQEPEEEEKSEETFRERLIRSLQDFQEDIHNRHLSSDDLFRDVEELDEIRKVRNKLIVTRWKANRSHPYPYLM", "UniProt Q9DBR4": "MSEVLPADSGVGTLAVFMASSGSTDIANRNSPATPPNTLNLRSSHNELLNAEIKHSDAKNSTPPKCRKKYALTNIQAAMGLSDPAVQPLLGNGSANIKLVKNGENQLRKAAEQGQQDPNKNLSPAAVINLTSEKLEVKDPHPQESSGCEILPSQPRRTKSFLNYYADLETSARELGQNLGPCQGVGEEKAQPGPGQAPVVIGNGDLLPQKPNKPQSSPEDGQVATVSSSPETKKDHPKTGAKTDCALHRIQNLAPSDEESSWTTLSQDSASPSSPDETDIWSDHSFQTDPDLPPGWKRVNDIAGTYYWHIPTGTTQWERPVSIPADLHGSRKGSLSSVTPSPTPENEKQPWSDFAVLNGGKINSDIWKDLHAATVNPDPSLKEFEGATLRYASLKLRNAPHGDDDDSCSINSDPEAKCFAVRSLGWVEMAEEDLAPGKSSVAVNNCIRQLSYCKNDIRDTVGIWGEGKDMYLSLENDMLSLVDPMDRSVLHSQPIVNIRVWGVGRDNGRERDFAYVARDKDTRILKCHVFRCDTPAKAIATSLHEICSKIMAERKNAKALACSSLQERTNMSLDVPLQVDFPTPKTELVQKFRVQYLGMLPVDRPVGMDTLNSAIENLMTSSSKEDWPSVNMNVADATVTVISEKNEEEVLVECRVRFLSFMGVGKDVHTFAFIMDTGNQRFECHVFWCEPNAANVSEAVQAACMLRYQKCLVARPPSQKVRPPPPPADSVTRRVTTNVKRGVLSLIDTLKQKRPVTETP", "UniProt Q9ERN0": "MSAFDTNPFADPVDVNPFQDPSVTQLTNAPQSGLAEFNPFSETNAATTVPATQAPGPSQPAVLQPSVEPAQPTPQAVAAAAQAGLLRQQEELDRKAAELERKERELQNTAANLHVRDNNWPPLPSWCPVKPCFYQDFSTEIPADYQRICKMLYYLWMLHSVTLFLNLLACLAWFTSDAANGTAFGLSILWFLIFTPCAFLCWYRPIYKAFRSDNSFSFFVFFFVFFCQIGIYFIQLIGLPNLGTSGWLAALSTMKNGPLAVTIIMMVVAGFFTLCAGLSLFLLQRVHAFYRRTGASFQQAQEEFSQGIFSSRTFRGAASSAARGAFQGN", "UniProt Q9DB10": "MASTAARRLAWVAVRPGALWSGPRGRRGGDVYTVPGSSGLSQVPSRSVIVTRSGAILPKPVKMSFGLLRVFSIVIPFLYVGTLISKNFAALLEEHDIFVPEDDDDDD", "UniProt Q9DCJ9": "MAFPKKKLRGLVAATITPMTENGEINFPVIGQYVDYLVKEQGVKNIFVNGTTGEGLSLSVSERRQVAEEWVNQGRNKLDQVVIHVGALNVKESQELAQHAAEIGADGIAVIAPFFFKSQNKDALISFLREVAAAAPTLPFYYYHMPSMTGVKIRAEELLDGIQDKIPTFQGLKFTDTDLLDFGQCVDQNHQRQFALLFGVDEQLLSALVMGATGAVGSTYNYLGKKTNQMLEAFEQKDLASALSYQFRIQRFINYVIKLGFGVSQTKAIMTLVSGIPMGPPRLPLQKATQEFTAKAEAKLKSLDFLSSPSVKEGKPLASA", "UniProt Q9EQS3": "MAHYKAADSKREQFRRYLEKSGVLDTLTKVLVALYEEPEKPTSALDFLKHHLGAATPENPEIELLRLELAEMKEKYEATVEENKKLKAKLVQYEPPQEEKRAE", "UniProt Q9DCM7": "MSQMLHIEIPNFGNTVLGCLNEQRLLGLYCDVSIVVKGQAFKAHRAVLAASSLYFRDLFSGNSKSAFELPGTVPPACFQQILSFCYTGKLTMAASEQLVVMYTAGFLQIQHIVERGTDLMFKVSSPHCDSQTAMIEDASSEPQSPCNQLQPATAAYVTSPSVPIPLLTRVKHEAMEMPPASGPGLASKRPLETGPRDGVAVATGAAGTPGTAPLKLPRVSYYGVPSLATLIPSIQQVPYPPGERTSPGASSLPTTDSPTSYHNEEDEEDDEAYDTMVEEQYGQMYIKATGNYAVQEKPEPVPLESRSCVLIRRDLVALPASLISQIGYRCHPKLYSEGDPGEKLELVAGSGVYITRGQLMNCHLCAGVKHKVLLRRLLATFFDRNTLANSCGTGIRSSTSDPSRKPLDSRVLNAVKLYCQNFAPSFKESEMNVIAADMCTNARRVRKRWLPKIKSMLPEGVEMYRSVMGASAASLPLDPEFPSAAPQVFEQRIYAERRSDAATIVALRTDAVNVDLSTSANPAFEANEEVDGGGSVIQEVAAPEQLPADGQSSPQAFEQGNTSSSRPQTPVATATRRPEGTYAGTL", "UniProt Q9DC23": "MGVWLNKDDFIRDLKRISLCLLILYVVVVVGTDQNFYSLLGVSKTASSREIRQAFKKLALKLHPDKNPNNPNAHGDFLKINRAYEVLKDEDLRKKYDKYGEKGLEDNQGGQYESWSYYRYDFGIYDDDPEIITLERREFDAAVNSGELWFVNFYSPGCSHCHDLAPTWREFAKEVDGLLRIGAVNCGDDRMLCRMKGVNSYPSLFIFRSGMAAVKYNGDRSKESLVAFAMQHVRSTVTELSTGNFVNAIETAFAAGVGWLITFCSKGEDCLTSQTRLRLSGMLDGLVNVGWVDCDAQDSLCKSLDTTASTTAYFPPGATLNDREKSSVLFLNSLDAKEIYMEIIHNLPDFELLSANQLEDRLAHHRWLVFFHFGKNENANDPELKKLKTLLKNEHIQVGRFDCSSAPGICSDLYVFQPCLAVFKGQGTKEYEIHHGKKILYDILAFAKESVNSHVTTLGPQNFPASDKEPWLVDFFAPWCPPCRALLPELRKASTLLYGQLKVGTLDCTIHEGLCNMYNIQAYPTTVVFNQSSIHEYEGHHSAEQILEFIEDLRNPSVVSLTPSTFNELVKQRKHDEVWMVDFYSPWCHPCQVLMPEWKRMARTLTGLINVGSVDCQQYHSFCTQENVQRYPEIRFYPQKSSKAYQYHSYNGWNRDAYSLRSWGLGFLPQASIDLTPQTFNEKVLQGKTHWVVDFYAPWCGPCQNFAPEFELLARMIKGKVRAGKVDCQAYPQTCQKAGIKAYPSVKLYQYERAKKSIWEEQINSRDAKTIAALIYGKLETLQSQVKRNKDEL", "UniProt Q9EQU5, whole entry": "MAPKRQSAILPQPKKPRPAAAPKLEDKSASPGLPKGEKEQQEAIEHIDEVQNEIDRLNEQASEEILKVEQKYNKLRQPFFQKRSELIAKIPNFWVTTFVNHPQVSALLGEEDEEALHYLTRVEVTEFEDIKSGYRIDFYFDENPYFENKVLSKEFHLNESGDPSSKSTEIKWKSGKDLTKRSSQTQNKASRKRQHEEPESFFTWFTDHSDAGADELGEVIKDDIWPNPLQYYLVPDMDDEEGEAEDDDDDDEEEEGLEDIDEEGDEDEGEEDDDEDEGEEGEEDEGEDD", "UniProt Q9DBC3": "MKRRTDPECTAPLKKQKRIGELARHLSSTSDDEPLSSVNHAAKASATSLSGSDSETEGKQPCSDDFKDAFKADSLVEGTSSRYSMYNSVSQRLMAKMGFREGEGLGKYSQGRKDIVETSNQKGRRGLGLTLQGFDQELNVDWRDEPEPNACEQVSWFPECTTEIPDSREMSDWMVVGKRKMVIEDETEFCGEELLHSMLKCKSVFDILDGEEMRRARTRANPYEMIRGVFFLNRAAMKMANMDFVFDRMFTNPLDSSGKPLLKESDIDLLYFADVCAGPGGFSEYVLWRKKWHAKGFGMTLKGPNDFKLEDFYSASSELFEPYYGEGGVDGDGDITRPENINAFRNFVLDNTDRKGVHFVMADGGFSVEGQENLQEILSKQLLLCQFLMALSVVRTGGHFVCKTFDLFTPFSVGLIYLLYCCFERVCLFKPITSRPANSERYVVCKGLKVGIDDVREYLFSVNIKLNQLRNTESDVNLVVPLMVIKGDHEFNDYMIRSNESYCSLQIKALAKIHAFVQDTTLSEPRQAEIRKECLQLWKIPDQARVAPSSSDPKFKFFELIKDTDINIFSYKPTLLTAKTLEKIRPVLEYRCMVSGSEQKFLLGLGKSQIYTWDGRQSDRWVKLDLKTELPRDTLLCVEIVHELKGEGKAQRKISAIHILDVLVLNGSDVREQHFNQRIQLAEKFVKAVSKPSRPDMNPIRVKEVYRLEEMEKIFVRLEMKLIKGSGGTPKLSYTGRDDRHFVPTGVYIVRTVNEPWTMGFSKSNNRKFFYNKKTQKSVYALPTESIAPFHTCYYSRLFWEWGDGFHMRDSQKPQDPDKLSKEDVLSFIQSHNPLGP", "UniProt Q9DBB1": "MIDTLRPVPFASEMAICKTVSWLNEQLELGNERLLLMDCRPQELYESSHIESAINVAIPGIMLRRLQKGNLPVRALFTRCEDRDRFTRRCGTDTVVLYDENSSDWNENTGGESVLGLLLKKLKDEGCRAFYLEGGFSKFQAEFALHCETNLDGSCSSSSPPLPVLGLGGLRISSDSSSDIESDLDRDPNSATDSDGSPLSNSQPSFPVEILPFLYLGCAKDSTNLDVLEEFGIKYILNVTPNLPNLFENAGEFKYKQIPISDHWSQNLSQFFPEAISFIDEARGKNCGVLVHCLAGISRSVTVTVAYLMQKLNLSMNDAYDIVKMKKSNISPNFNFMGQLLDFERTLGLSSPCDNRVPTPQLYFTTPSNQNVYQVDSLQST", "UniProt Q9DB91": "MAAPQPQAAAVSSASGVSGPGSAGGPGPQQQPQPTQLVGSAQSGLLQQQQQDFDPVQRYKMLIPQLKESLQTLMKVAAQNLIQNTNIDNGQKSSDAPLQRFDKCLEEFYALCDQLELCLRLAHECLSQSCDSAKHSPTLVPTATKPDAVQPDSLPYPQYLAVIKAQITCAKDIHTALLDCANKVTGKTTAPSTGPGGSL"}, "source": "the supplement of paper PMC12819154", "about": "“High-throughput peptide-centric local stability assay extends protein–ligand identification to membrane proteins, tissues and bacteria” (Nature Structural & Molecular Biology, 2025)", "note": "Some of the results follow. Most entries show no effect beyond the scatter of the controls.", "data": [{"compound": "CN[C@@H]1C[C@H]2O[C@@](C)([C@@H]1OC)n1c3ccccc3c3c4c(c5c6ccccc6n2c5c31)C(=O)NC4 [staurosporine]", "experiment": "log2 fold change of tryptic peptide abundance, ligand vs vehicle (limited proteolysis) (log2 ratio); higher = more trypsin-susceptible (destabilized)", "conditions": "ligand concentration: 20 uM; sample: mouse liver crude lysate; replicate design: treated separately", "values": [{"target": "UniProt Q9DD02 (peptide sequence: RLAQNPLFWKT, peptide start residue: 187)", "log2 fold change": -0.541}, {"target": "UniProt Q9DBJ3 (peptide sequence: NVMEQFNPGLR, peptide start residue: 18)", "log2 fold change": -0.207}, {"target": "UniProt Q9DBE9 (peptide sequence: LACDFLAR, peptide start residue: 143)", "log2 fold change": 0.54}, {"target": "UniProt Q9EPC1 (peptide sequence: WNVDSVHAK, peptide start residue: 177)", "log2 fold change": 0.807}, {"target": "UniProt Q9DD03 (peptide sequence: SGTNSKPSSTGLK, peptide start residue: 178)", "log2 fold change": -0.466}, {"target": "UniProt Q9DCX1 (peptide sequence: AWLATEAR, peptide start residue: 115)", "log2 fold change": 0.0676}, {"target": "UniProt Q9DBL2 (peptide sequence: EQSMSSVGFCVINSAKR, peptide start residue: 158)", "log2 fold change": 0.251}, {"target": "UniProt Q9DD24 (peptide sequence: HLSSDDLFR, peptide start residue: 64)", "log2 fold change": -0.158}, {"target": "UniProt Q9DBR3 (peptide sequence: SLSTEQLFR, peptide start residue: 510)", "log2 fold change": 0.238}, {"target": "UniProt Q9EQM6 (peptide sequence: FDFEQVTVKK, peptide start residue: 448)", "log2 fold change": 0.825}, {"target": "UniProt Q9DBR4 (peptide sequence: DLHAATVNPDPSLKEFEGATLR, peptide start residue: 369)", "log2 fold change": 0.235}, {"target": "UniProt Q9DBZ1 (peptide sequence: VAAPEPEKR, peptide start residue: 14)", "log2 fold change": -0.186}, {"target": "UniProt Q9DCC7 (peptide sequence: ILYFPQIVSK, peptide start residue: 31)", "log2 fold change": -0.202}, {"target": "UniProt Q9ERN0 (peptide sequence: QQEELDR, peptide start residue: 88)", "log2 fold change": -0.0723}, {"target": "UniProt Q9DB10 (peptide sequence: PGALWSGPRGR, peptide start residue: 16)", "log2 fold change": 0.526}, {"target": "UniProt Q9DCJ9 (peptide sequence: FINYVIK, peptide start residue: 252)", "log2 fold change": 0.327}, {"target": "UniProt Q9DCG9 (peptide sequence: MKLLTHNLLSSHVR, peptide start residue: 1)", "log2 fold change": -0.4}, {"target": "UniProt Q9ERD6 (peptide sequence: EDLAGPDIGASPQGGRK, peptide start residue: 298)", "log2 fold change": -0.285}, {"target": "UniProt Q9DBV3 (peptide sequence: HLHNDFLLGVLQR, peptide start residue: 287)", "log2 fold change": 0.385}, {"target": "UniProt Q9DCM4 (peptide sequence: LQTFPLVR, peptide start residue: 16)", "log2 fold change": 0.024}, {"target": "UniProt Q9ERG2 (peptide sequence: LKYGTELNQGDLK, peptide start residue: 135)", "log2 fold change": -0.21}, {"target": "UniProt Q9DB43 (peptide sequence: RRPALGWLAQLLR, peptide start residue: 237)", "log2 fold change": 0.224}, {"target": "UniProt Q9EQS3 (peptide sequence: HHLGAATPENPEIELLR, peptide start residue: 50)", "log2 fold change": -0.139}, {"target": "UniProt Q9DCL4 (peptide sequence: LHIPVMVDQVVHCLAPQK, peptide start residue: 71)", "log2 fold change": -0.628}, {"target": "UniProt Q9DCM7 (peptide sequence: VKHEAMEMPPASGPGLASK, peptide start residue: 170)", "log2 fold change": 0.488}, {"target": "UniProt Q9DC23 (peptide sequence: LETLQSQVK, peptide start residue: 779)", "log2 fold change": 0.23}, {"target": "UniProt Q9DCM2 (peptide sequence: YGAFGLPTTVAHVDGK, peptide start residue: 178)", "log2 fold change": -0.368}, {"target": "UniProt Q9EQU5 (peptide sequence: LRQPFFQK, peptide start residue: 75)", "log2 fold change": 0.289}, {"target": "UniProt Q9DBC3 (peptide sequence: HFVPTGVYIVR, peptide start residue: 741)", "log2 fold change": 0.409}, {"target": "UniProt Q9DBB1 (peptide sequence: NCGVLVHCLAGISR, peptide start residue: 286)", "log2 fold change": 0.598}, {"target": "UniProt Q9DB91 (peptide sequence: ESLQTLMK, peptide start residue: 68)", "log2 fold change": 0.196}]}]}
